Some of the results follow.
Compound: Cc1ccc(-n2nc(C(C)(C)C)cc2NC(=O)Nc2ccc(OCCN3CCOCC3)c3ccccc23)cc1 [doramapimod]
Experiment: log2 fold change, soluble protein after heating vs DMSO (PISA); higher = thermal stabilisation; K562 cells, 10 uM, 30 min; active = over 0.2 and 3.5 SD of the protein, either way, in both replicates (recomputed)
Method in brief: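 Aliquots of K562 cells (2×10^6 cells/mL) treated with 10 μM compound for 30 min were heated for 3 min over 48°C-58°C. After pooling and extraction in PBS with 0.5% NP-40 at 4°C, soluble protein from a 21,000xg, 90 min spin was quantified by TMTpro 16plex LC-MS/MS with channel sums equalised. Thermal stability is expressed against control samples, from duplicates, as a log2 fold change.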

The chains behind the UniProt entries cited, without tags or fusion partners. Where a name states a change or a piece, a line headed by the entry shows the natural chain unless it says otherwise.
UniProt O43390: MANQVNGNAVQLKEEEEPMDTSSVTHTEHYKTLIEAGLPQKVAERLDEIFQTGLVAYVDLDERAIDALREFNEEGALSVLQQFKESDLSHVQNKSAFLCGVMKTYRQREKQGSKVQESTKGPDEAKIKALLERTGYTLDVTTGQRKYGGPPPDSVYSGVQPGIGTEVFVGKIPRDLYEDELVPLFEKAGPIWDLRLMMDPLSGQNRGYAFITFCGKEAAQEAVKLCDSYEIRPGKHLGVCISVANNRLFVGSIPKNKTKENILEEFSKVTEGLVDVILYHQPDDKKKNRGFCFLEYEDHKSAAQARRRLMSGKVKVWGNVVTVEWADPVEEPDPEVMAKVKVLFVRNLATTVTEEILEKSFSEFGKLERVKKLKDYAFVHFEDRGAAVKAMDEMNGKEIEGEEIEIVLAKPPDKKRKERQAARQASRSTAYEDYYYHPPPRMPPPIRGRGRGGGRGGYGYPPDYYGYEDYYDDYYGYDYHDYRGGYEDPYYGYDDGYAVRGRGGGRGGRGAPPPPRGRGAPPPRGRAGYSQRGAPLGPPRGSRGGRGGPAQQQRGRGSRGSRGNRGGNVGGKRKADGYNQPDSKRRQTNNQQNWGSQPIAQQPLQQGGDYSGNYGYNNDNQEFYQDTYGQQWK
UniProt Q58FF7, whole entry, looked up: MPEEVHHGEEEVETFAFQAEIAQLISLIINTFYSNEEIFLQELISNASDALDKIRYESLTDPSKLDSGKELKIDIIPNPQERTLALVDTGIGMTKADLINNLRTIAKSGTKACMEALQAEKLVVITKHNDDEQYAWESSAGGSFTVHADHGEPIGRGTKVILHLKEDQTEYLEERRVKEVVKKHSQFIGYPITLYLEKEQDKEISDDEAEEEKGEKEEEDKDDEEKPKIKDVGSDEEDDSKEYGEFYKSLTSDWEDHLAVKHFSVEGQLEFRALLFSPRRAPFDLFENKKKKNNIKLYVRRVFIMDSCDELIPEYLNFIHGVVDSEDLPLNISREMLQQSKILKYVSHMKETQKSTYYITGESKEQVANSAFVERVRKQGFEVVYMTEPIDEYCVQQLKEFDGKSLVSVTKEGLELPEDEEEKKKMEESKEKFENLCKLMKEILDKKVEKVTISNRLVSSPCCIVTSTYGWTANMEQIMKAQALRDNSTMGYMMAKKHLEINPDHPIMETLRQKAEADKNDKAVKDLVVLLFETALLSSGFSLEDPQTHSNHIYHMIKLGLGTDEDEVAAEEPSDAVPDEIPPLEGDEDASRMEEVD
UniProt P55795: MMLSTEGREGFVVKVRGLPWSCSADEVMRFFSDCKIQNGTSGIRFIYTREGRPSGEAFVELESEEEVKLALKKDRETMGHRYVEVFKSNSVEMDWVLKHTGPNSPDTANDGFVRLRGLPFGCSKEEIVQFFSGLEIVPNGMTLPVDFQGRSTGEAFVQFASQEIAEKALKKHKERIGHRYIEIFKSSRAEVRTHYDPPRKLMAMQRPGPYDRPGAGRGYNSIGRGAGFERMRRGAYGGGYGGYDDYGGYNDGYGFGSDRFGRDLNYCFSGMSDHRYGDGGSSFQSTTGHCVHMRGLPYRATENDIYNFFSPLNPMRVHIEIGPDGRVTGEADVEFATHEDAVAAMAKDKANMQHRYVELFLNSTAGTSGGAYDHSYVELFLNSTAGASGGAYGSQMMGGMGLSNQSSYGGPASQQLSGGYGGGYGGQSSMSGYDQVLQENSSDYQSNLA
UniProt Q86VS8: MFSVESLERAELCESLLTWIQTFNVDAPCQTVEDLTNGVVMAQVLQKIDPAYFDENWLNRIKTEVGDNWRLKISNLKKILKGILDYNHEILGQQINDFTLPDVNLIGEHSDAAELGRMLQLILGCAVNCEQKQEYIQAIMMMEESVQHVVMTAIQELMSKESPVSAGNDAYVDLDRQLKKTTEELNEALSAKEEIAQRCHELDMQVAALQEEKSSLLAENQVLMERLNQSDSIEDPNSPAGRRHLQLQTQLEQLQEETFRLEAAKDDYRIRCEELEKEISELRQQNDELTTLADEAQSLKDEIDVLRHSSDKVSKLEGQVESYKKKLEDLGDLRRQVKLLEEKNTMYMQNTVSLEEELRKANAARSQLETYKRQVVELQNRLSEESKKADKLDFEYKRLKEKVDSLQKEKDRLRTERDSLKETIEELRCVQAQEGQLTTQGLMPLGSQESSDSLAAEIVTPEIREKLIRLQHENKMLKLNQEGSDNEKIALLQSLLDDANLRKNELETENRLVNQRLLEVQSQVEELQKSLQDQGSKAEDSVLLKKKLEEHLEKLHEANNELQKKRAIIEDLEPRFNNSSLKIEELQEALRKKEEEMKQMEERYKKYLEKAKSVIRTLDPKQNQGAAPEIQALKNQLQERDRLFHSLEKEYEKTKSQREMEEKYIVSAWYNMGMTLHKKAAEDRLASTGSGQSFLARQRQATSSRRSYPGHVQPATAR
UniProt P05362: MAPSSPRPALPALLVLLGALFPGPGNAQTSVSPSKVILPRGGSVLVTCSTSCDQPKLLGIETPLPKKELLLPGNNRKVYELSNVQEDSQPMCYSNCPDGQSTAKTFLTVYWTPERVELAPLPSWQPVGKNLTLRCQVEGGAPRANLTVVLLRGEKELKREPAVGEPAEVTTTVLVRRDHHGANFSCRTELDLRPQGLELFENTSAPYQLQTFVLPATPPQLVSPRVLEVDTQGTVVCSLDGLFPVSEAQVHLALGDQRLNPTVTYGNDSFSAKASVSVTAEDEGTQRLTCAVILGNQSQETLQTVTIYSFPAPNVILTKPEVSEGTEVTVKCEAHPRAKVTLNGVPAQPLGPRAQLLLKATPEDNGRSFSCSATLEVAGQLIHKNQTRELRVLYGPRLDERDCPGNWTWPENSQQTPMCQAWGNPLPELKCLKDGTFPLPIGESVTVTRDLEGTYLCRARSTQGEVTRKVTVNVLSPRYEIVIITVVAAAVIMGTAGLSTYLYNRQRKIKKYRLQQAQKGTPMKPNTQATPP
UniProt Q9BX68: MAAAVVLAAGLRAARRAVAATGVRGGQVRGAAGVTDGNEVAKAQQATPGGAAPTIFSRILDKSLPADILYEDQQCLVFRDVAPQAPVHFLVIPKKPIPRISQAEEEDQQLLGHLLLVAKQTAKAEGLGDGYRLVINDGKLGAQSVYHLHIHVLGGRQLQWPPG
UniProt Q03014: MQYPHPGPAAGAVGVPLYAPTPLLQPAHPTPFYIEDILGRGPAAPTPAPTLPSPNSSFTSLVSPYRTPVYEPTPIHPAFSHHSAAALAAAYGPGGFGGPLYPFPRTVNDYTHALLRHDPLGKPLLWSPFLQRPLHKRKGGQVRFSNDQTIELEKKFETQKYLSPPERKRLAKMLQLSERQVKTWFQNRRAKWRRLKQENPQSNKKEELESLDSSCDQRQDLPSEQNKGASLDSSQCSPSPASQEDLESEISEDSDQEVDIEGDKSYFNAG
UniProt Q1KMD3: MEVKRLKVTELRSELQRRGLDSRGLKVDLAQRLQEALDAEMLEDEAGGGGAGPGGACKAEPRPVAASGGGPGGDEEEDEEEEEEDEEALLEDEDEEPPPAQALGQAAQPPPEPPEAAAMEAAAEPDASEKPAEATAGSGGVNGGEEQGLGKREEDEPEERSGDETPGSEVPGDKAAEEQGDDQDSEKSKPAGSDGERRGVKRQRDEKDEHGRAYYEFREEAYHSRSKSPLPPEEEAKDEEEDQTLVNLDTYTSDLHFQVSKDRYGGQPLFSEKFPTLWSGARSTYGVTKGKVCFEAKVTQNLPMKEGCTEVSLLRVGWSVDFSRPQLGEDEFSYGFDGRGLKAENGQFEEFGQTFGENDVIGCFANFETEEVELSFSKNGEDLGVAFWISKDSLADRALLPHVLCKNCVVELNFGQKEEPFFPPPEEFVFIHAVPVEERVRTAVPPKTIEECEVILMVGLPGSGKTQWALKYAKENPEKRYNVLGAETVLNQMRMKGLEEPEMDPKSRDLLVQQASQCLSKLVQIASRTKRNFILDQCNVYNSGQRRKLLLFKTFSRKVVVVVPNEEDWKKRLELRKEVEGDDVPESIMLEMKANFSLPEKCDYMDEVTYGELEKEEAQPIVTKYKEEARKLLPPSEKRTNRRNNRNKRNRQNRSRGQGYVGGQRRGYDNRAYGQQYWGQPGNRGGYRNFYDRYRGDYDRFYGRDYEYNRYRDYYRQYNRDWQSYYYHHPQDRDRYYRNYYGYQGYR
UniProt Q96JB3: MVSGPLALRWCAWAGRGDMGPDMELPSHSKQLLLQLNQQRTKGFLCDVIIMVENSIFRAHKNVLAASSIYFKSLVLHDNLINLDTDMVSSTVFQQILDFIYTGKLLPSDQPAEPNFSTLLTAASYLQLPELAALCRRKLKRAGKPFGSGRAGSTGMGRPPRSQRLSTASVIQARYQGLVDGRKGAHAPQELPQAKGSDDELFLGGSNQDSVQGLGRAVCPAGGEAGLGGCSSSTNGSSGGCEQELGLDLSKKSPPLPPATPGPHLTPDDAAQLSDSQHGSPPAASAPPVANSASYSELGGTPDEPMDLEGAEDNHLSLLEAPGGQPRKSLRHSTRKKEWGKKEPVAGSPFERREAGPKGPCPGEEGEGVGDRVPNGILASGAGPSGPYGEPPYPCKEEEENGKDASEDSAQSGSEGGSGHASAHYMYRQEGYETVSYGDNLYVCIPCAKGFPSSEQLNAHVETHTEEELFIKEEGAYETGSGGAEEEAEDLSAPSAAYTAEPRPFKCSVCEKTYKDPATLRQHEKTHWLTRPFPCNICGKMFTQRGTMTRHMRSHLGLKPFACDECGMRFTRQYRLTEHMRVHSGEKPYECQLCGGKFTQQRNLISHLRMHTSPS
UniProt P31943: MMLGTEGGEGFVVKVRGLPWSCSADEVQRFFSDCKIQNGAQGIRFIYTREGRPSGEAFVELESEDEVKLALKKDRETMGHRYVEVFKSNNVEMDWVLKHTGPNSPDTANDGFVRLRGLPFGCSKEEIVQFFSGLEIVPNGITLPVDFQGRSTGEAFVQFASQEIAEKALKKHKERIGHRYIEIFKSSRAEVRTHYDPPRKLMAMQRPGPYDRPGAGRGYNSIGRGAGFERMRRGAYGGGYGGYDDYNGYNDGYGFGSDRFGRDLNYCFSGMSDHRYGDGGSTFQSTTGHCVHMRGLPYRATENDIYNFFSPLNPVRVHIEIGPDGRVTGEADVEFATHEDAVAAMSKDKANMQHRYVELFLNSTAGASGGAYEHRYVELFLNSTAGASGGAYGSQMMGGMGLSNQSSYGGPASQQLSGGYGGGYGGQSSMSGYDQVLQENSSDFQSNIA
UniProt P05114: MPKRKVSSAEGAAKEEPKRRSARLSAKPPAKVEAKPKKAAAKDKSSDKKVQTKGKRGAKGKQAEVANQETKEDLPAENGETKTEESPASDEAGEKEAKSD
UniProt Q6DN03, whole entry, looked up: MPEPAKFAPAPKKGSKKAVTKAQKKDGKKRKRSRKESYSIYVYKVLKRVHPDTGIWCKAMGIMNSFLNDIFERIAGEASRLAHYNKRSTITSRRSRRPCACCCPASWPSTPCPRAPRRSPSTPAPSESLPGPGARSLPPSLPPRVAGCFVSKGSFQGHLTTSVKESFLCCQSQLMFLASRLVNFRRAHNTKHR
UniProt Q53FT3: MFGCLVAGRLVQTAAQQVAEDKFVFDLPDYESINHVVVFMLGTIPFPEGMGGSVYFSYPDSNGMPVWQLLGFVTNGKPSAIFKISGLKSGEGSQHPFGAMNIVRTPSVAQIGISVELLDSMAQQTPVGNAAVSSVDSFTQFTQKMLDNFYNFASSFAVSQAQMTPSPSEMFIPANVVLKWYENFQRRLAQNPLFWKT
UniProt Q9BUJ2: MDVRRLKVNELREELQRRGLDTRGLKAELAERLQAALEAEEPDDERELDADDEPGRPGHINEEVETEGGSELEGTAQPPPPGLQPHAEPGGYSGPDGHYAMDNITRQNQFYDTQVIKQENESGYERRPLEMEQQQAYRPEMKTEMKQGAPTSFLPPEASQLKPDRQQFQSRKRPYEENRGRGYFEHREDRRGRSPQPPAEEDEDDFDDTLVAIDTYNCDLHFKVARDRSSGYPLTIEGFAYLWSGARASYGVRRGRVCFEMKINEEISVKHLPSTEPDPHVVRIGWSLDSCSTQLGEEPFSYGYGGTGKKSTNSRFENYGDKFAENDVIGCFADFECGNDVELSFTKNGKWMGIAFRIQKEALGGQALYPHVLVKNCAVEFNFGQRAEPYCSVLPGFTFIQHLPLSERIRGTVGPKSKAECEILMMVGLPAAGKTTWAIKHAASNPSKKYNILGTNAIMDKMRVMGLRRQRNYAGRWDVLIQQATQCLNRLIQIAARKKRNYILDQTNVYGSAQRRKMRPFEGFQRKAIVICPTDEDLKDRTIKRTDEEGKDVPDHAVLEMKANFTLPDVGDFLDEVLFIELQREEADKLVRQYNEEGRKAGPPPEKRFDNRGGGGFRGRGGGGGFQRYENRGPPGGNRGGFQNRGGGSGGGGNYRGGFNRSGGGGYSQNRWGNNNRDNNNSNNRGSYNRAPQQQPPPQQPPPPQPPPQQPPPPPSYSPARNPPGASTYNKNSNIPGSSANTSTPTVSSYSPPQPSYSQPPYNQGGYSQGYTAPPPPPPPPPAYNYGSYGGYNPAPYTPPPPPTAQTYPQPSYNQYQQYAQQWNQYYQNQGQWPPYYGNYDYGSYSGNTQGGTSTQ

Row | Target | log2 fold change
1 | HNRNPR (UniProt O43390) | inactive: 0.054
2 | HSP90AB3P (UniProt Q58FF7) | inactive: -0.048
3 | HNRNPK isoform 3 (UniProt P61978) | inactive: 0.05
4 | HSPA8 (UniProt E9PK54) | inactive: 0.143
5 | HMOX2 (UniProt P30519) | inactive: 0.062
6 | HNRNPF (UniProt P52597) | inactive: -0.03
7 | HSPA8 (UniProt E9PN89) | inactive: 0
8 | HIST2H3A (UniProt Q71DI3) | inactive: 0.098
9 | HMGN2 (UniProt P05204) | inactive: -0.1
10 | ICMT (UniProt O60725) | inactive: 0.01
11 | HK2 (UniProt P52789) | inactive: -0.026
12 | HRAS (UniProt P01112) | inactive: -0.032
13 | HNRNPH2 (UniProt P55795) | inactive: -0.024
14 | HOOK3 (UniProt Q86VS8) | inactive: 0.019
15 | ICAM1 (UniProt P05362) | inactive: -0.012
16 | HMGB3 (UniProt O15347) | inactive: 0.002
17 | HIST2H2BF isoform 2 (UniProt Q5QNW6) | inactive: 0.253

Single entries from the list:
For log2 fold change, HNRNPK isoform 3 (UniProt P61978) has inactive: 0.05
For log2 fold change, HOOK3 (UniProt Q86VS8) has inactive: 0.019

Continuation.

Row | Target | log2 fold change
18 | HINT2 (UniProt Q9BX68) | inactive: 0.049
19 | HNRNPC isoform 2 (UniProt P07910) | inactive: 0.088
20 | ICE1 (UniProt Q9Y2F5) | inactive: 0.045
21 | HHEX (UniProt Q03014) | inactive: 0.05
22 | HS1BP3 (UniProt Q53T59) | inactive: 0.089
23 | HIP1R (UniProt O75146) | inactive: 0.007
24 | HNRNPUL2 (UniProt Q1KMD3) | inactive: 0.041
25 | HPCAL1 (UniProt P37235) | inactive: -0.027
26 | HSD17B12 (UniProt Q53GQ0) | inactive: -0.009
27 | HIC2 (UniProt Q96JB3) | inactive: 0.121
28 | HNRNPH1 (UniProt P31943) | inactive: -0.012
29 | HMGN1 (UniProt P05114) | inactive: 0.013
30 | HIST2H2BC (UniProt Q6DN03) | inactive: 0.135
31 | HIKESHI (UniProt Q53FT3) | inactive: -0.013
32 | HNRNPUL1 (UniProt Q9BUJ2) | inactive: -0.025
33 | HOMER1 (UniProt Q86YM7) | inactive: 0.027
